The source of these data is the supplement of paper PMC5836539.

Sequences of proteins named here, by UniProt entry; tags and fusion partners are left off. A change or cut given only in a name is not applied to a line headed by its entry.
UniProt Q9UQ35: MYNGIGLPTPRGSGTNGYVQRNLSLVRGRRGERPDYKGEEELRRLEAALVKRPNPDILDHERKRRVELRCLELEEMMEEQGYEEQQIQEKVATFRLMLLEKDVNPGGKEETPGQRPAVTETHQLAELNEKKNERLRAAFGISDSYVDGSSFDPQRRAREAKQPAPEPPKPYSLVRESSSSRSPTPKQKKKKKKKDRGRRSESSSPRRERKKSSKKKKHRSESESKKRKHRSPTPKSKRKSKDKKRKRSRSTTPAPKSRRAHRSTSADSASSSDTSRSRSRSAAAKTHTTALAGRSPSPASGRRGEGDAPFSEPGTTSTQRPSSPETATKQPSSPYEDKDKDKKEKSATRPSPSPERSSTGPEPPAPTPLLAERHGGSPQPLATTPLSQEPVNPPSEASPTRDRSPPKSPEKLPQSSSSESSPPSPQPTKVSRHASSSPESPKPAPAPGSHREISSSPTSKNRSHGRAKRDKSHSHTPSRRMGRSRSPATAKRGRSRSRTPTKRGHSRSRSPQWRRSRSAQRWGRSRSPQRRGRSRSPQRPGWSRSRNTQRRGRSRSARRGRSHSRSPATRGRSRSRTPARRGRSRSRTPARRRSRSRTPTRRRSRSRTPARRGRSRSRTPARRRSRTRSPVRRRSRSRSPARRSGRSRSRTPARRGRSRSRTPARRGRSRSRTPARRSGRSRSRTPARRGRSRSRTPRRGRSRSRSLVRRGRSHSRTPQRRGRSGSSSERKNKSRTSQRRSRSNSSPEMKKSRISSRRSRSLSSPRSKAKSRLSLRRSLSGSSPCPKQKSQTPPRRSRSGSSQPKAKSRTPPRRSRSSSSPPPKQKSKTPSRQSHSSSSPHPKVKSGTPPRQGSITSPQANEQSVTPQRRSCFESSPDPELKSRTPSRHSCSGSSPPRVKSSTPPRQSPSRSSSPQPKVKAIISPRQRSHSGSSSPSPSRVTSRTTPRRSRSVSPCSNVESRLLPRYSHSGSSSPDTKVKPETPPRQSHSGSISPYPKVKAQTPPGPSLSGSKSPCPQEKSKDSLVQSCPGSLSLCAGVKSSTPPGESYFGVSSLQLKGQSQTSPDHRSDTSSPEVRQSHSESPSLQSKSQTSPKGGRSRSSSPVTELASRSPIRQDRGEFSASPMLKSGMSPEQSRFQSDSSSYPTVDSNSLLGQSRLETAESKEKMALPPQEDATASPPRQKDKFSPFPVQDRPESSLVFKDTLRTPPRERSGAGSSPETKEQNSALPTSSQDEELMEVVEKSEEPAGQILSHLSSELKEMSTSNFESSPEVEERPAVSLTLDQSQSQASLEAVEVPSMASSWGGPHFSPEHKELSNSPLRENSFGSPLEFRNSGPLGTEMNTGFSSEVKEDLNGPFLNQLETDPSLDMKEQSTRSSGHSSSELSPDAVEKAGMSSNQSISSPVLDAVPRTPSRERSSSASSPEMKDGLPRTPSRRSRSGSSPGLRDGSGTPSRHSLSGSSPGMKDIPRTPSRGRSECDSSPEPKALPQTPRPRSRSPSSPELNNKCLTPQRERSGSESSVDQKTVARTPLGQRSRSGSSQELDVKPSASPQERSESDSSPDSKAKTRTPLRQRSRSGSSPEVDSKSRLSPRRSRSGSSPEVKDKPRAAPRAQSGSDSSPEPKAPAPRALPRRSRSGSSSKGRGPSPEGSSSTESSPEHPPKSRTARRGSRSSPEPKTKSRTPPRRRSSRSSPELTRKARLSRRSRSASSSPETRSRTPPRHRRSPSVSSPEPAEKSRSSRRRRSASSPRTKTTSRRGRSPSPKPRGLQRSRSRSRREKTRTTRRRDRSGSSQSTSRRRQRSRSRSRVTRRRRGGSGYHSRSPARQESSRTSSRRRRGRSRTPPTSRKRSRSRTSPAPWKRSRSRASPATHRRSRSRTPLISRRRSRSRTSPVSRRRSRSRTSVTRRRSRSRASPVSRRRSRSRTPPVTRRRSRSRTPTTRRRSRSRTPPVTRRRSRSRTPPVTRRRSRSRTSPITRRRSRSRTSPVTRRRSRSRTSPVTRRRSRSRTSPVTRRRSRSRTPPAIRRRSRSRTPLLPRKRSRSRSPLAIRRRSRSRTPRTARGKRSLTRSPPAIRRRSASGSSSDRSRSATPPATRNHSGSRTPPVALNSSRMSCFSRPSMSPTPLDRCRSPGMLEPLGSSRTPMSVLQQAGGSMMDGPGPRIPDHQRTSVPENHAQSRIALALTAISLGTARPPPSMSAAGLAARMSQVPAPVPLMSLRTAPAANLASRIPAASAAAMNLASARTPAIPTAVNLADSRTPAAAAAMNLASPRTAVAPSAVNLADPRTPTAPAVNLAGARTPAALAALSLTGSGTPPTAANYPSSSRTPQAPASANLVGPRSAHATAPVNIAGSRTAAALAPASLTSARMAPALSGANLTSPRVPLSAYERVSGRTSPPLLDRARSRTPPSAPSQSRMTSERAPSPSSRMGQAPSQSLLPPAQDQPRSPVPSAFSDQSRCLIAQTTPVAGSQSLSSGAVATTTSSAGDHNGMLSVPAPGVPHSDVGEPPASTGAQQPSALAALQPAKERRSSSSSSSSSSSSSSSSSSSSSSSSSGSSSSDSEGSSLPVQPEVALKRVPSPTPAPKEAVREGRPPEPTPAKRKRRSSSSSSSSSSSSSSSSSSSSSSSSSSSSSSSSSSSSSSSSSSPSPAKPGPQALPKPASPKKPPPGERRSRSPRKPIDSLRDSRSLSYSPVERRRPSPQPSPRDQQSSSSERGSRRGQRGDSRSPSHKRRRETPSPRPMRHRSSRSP
UniProt P10644, whole entry, looked up: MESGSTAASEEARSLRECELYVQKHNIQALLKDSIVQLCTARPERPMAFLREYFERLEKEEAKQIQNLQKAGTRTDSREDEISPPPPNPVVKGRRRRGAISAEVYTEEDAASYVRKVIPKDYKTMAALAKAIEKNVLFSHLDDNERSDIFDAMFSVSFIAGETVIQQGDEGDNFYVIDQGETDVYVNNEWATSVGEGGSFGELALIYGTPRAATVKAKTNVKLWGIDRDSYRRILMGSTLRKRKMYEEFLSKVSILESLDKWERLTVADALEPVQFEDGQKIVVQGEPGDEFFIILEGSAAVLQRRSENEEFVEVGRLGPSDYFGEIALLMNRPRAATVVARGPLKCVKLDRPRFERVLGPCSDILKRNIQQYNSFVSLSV
UniProt P28715: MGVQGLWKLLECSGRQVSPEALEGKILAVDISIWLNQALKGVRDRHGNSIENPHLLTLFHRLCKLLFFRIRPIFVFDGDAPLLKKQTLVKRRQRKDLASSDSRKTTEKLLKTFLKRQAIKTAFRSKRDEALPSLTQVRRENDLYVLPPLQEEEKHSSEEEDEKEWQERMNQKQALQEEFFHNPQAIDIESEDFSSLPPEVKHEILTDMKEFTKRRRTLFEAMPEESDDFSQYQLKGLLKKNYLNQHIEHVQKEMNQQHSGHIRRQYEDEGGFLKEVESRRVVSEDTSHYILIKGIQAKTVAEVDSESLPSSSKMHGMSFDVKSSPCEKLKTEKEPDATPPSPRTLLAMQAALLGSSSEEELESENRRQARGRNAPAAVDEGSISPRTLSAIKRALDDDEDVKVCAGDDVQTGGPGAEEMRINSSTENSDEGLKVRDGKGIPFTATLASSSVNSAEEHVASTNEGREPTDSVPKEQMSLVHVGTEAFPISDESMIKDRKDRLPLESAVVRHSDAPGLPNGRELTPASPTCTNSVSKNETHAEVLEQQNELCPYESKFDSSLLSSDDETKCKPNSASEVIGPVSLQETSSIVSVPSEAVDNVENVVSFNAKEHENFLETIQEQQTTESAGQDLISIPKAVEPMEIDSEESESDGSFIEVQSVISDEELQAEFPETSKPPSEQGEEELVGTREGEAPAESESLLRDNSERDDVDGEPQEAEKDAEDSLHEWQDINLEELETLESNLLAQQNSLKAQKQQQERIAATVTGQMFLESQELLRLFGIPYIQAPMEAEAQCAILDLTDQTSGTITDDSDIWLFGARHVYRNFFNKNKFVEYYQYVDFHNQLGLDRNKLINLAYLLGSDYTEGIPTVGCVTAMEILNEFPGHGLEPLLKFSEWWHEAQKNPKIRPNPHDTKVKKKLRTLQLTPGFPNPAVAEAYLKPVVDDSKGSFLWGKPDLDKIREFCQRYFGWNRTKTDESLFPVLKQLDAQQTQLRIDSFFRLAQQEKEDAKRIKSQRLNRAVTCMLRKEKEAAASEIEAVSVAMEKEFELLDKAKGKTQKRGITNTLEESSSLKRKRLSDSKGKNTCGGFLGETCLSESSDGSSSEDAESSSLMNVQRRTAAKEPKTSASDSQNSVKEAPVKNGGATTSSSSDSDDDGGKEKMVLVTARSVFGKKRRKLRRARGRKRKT
UniProt Q9NRW4: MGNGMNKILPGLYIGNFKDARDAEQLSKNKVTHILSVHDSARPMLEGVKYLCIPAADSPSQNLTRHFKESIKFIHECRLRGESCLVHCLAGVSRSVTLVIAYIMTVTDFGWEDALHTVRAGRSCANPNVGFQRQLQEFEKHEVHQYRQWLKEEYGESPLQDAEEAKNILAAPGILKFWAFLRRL
UniProt Q92922, whole entry, looked up: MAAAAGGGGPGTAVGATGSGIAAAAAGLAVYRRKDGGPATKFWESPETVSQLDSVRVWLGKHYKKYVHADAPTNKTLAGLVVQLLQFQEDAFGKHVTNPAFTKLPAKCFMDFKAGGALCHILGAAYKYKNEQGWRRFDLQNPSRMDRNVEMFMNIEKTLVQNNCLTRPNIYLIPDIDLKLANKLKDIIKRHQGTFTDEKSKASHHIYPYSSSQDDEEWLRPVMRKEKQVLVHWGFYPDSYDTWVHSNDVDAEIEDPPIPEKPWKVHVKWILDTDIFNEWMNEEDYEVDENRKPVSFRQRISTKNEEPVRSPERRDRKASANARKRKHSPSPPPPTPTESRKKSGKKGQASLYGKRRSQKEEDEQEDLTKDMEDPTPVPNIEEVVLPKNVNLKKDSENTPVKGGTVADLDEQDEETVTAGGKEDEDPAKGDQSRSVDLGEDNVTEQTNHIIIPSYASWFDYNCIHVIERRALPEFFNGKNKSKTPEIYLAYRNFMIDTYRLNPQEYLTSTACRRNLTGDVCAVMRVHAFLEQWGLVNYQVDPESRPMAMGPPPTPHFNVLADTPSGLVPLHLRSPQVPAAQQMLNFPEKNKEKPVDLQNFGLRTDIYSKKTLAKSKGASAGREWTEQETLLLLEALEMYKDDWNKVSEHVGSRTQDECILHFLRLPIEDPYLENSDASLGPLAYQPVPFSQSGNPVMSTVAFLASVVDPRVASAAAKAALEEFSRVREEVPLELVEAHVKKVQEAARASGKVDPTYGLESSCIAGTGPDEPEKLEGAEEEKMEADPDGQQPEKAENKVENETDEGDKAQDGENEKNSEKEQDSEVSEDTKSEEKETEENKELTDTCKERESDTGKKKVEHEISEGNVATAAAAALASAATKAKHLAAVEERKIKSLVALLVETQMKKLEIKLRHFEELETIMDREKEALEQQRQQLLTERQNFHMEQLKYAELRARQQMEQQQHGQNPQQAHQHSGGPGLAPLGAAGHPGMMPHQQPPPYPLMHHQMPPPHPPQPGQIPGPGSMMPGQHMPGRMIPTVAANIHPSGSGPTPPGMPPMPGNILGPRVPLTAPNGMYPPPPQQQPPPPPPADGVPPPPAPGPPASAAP
UniProt O00178: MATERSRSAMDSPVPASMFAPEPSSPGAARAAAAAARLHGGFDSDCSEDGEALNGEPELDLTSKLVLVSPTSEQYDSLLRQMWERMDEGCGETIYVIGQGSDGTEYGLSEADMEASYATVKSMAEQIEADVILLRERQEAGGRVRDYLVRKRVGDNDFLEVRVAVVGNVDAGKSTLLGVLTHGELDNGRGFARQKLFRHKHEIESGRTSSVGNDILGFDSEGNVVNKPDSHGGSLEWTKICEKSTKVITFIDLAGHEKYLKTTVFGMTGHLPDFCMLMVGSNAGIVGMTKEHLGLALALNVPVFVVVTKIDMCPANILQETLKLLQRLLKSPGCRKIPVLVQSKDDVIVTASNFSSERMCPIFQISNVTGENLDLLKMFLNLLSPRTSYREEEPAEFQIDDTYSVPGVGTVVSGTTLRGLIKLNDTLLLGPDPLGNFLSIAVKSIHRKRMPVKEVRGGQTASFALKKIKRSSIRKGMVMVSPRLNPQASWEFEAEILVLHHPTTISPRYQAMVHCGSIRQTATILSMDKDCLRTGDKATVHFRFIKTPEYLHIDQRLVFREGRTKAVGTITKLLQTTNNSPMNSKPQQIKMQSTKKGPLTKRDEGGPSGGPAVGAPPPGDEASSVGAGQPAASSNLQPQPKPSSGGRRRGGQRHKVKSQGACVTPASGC

± gives the standard deviation of the averaged measurements. This data set is noisy: repeats of one test often differ as much as different tests do.

Compound in the test: CC[C@@H](C)Nc1cc(C(=O)N[C@H]2C[C@H]3CC[C@@H](C2)N3c2ccc(C(=O)C3CC3)cn2)c(C)cc1C(N)=O [XL888]
In words: phosphopeptide melting temperature shift (XL888 minus DMSO); higher = stabilised by drug treatment. To be noted: 100 µM; treatment time 2 h; layout: intact cells; SK-Mel 28. Here is the method: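 Phospho-TPP in intact SK-Mel 28 cells treated with 100 uM XL888 or DMSO for 2 h, heated at 10 temperatures (37-67 C) for 3 min, soluble fraction TMT10plex-labelled and TiO2 phospho-enriched. Melting curves were fitted per phosphopeptide; the value is the melting point difference (drug minus vehicle) in each of two biological replicates.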
Regarding “SRRM2 phosphosite_895 (phosphosite position: 895) (UniProt Q9UQ35)”, the “phosphopeptide melting temperature shift” value came out at 2.65 °C.
Regarding “GIT1 phosphosite_596 (phosphosite position: 596) (UniProt Q9Y2X7)”, the “phosphopeptide melting temperature shift” value was 0.305 ± 0.1 °C.
For “UniProt Q9Y4F5-3_phosphosite_549 (phosphosite position: 549)”, the “phosphopeptide melting temperature shift” value was -0.338 ± 1.2 °C.
For “RBM5 phosphosite_624 (phosphosite position: 624) (UniProt P52756)”, the “phosphopeptide melting temperature shift” value stood at 5.81 °C.
As for “UniProt O76094-2_phosphosite_560 (phosphosite position: 560)”, the “phosphopeptide melting temperature shift” value was determined as 2.24 ± 0.66 °C.
As for “UniProt Q9ULJ3_phosphosite_714 (phosphosite position: 714)”, the “phosphopeptide melting temperature shift” value was -1.25 °C.
For “SQSTM1 phosphosite_366 (phosphosite position: 366) (UniProt Q13501)”, the “phosphopeptide melting temperature shift” value was -0.504 ± 1.4 °C.
“SRRM2 phosphosite_437 (phosphosite position: 437) (UniProt Q9UQ35)”: the “phosphopeptide melting temperature shift” value was found to be 2.35 °C.
“PRKAR1A phosphosite_77 (phosphosite position: 77) (UniProt P10644)”: the “phosphopeptide melting temperature shift” value amounted to 0.87 ± 1.3 °C.
The same measure for “MAP1B phosphosite_1312 (phosphosite position: 1312) (UniProt P46821)”: 0.0994 ± 0.45 °C; for “ERCC5 phosphosite_156 (phosphosite position: 156) (UniProt P28715)”: 1.69 °C.
The same measure for “UniProt P85037-2_phosphosite_257 (phosphosite position: 257)”: 1.14 °C; for “UniProt P16383_phosphosite_430 (phosphosite position: 430)”: -1.14 °C.
With “CCDC97 phosphosite_337 (phosphosite position: 337) (UniProt Q96F63)”, the “phosphopeptide melting temperature shift” value was -1.71 °C.
The same measure for “DUSP22 phosphosite_58 (phosphosite position: 58) (UniProt Q9NRW4)”: 1.85 °C; for “TANC2 phosphosite_404 (phosphosite position: 404) (UniProt Q9HCD6)”: 0.863 °C.
For the target “SMARCC1 phosphosite_330 (phosphosite position: 330) (UniProt Q92922)”, the “phosphopeptide melting temperature shift” value came out at 1.65 ± 2.4 °C.
In the case of “UniProt Q9NPQ8-4_phosphosite_435 (phosphosite position: 435)” it was 0.492 °C; in that of “UniProt Q8WYQ5-3_phosphosite_275 (phosphosite position: 275)”, 1.92 °C; in that of “UniProt Q9BXP5-5_phosphosite_74 (phosphosite position: 74)”, 0.247 ± 0.56 °C.
In the case of “UniProt Q58WW2-4_phosphosite_700 (phosphosite position: 700)” it was 3.22 °C.
Consider “UniProt O43237-2_phosphosite_128 (phosphosite position: 128)”, for which the “phosphopeptide melting temperature shift” value was -0.155 °C.
In the case of “NAP1L4 phosphosite_304 (phosphosite position: 304) (UniProt Q99733)”, the “phosphopeptide melting temperature shift” value was 0.75 ± 0.45 °C.
The same measure for “IWS1 phosphosite_362 (phosphosite position: 362) (UniProt Q96ST2)”: 0.105 ± 1.1 °C.
“GTPBP1 phosphosite_47 (phosphosite position: 47) (UniProt O00178)”: the “phosphopeptide melting temperature shift” value is -0.457 °C.
The same measure for “AKT1S1 phosphosite_92 (phosphosite position: 92) (UniProt Q96B36)”: -2.52 °C.
As to “PPP1R10 phosphosite_545 (phosphosite position: 545) (UniProt Q96QC0)”, the “phosphopeptide melting temperature shift” value was -0.594 °C.
